Test results as given in PubChem BioAssay AID540256 (National Center for Advancing Translational Sciences (NCATS), 2011).
Hit rate of the full screen: of about 300,000 compounds, about 3,700 (1.2%) were called active. The inconclusive results got no clear call from the source; some entries with a clear call stand among them for comparison. Calls follow the shape of the full dose curve; tested in HEK293 cells. Potencies beside an inconclusive call are fits to weak or partial responses and may not hold up.

assay: qHTS for Inhibitors of binding or entry into cells for Lassa Virus; conditions: Lassa virus pseudotype entry inhibition, cell reporter; series mostly up to 37.9 µM; also: nearly all actives have a fitted effect of over 50% in size
Potency is read from the fitted curve at half-maximal effect.

Row | SMILES | Potency
1 | COc1ccc(CCNCC(=O)Nc2ccccc2C(F)(F)F)cc1 | inactive
2 | NC(=O)c1cc(S(=O)(=O)N2CCOCC2)ccc1Sc1ccccc1N | inactive
3 | O=C(COC(=O)c1ccc(O)cc1)c1ccc(S(=O)(=O)N2CCCCC2)cc1 | inconclusive: 17.8 µM [inhibitor, single point]
4 | O=C(NCCc1ccccc1)C(c1cccs1)N(C(=O)CCl)c1ccc(Cl)cc1 (stereo not drawn) | active: 17.8 µM
5 | O=C(Nc1cccnc1)c1c(F)c(F)c(F)c(F)c1F | inactive
6 | CCOc1ccc(CCNC(=O)c2cc(=O)[nH]c3ccc(S(=O)(=O)N4CCCCC4C)cc23)cc1OCC (stereo not drawn) | inactive
7 | COc1ccc(Cc2nc3ccc(C(=O)N(C)CCc4cnn(C)c4)cc3o2)cc1OC | inactive
8 | Cc1ccc(C2CC(=O)Nc3cc4c(cc32)OCCO4)cc1Br (stereo not drawn) | inconclusive: 20 µM [inhibitor, single point]
9 | COc1ccc(-c2nnc(NC(=O)c3ccc(S(=O)(=O)N4CCc5ccccc5C4)cc3)o2)cc1 | inconclusive: 6.31 µM [inhibitor, partial curve, poor fit]
10 | CCc1nnc(NC(=O)CSc2nnc(-c3ccoc3C)n2-c2cccc(C)c2)s1 | inconclusive: 29.1 µM [activator, single point]
11 | CCOc1ccc(NS(=O)(=O)c2ccc(OCC)c3ncccc23)cc1 | inconclusive: 1.46 µM [inhibitor, partial curve, poor fit]
12 | O=C(NC1(C(=O)O)CCCC1)C(Cl)Cl | inconclusive: 10 µM [activator, partial curve, poor fit]
13 | CCN(CC)S(=O)(=O)c1cccc(-c2nnc(SCC(=O)c3cc(C)n(C)c3C)o2)c1 | inconclusive: 11.6 µM [inhibitor, partial curve, poor fit]
14 | Cc1ccc(NC(=O)NC2=N/C(=C(/C#N)C(=O)N3CCCC3)c3ccccc32)cc1 | inactive
15 | COc1ccc(C(=O)NCCN2CCN(C(=O)c3ccc(OC)cc3)CC2)cc1 | inactive
16 | COc1ccc(OCc2cc(C(=O)NCC(C)(C)N3CCOCC3)no2)c(Cl)c1 | inactive
17 | O=C1CSC(c2cn(-c3ccccc3)nc2-c2ccccc2)N1Cc1ccco1 (stereo not drawn) | inconclusive: 35.5 µM [inhibitor, single point]
18 | CCCOc1ccc(C(=O)Nc2ccc(NC(=O)c3cccs3)cc2)cc1 | inactive
19 | COC(=O)CCCCCCCCC(O)C[N+]1(C)CCOCC1 (stereo not drawn) | inactive
20 | COc1ccccc1-c1cc(C=C2C(=O)Nc3ncc(Br)cc32)cc(Br)c1O | inconclusive: 19.9 µM [inhibitor, single point]
21 | CC(OC(=O)c1ccc(O)cc1)C(=O)Nc1cc(C(F)(F)F)ccc1Cl (stereo not drawn) | inconclusive: 35.5 µM [inhibitor, single point]
22 | CCC(C)NC(=O)COCc1cc(-c2ccc3c(c2)OCO3)on1 (stereo not drawn) | inconclusive: 11.2 µM [activator, single point]

Row | SMILES | Potency
23 | CC12CS(=O)(=O)CC1SC(=S)N2c1ccccn1 (stereo not drawn) | inactive
24 | O=C(NNc1c2ccccc2nc2ccccc12)c1ccccc1O | inconclusive: 15.8 µM [inhibitor, single point]
25 | CCCC(=O)NC(c1cccs1)c1cc(Cl)c2cccnc2c1O (stereo not drawn) | inconclusive: 2.51 µM [inhibitor, full curve]
26 | CC12CCC(=O)N1C(C(=O)OCc1c(Cl)cccc1Cl)CS2 (stereo not drawn) | inconclusive: 0.891 µM [inhibitor, full curve, poor fit]
27 | Cn1nc(C(=O)NCC(c2cccs2)N2CCOCC2)c2ccccc2c1=O (stereo not drawn) | inconclusive: 1.41 µM [inhibitor, full curve, poor fit]
28 | Cc1ccc(N=CC=C2OC(C)(C)C(C)(C)O2)cc1 | inconclusive: 32.6 µM [inhibitor, partial curve, poor fit]
29 | O=C(Nc1ccc([N+](=O)[O-])cc1)c1cccc(S(=O)(=O)Nc2cccnc2)c1 | inconclusive: 14.1 µM [inhibitor, partial curve, poor fit]
30 | COc1ccc(CNC(=O)C(CCSC)NS(=O)(=O)c2ccccc2F)cc1 (stereo not drawn) | inconclusive: 22.4 µM [inhibitor, single point]
31 | CC1CN(C2=N/C(=C/c3ccc4c(c3)OCO4)C(=O)N2)CC(C)O1 (stereo not drawn) | inconclusive: 3.16 µM [inhibitor, partial curve, poor fit]
32 | CCOc1ccc(OCC(=O)Nc2ccc(S(=O)(=O)Nc3cc(C)on3)cc2)cc1 | inconclusive: 5.01 µM [activator, full curve, poor fit]
33 | N#Cc1nc(-c2cccc3ccccc23)oc1NCCN1CCCCC1 | inactive
34 | COc1cc(CN(C(=O)COc2ccc(F)cc2)c2ccccn2)cc(OC)c1OC | inactive
35 | O=C(c1ccc2ccccc2c1)N1CCN(c2ccccc2)CC1 | inconclusive: 1.64 µM [inhibitor, partial curve, poor fit]
36 | CCc1ccc(-c2nc(SCC(=O)N(CCOC)c3c(N)n(Cc4ccccc4)c(=O)[nH]c3=O)n[nH]2)cc1 | inconclusive: 1.26 µM [inhibitor, single point]
37 | Cc1nc(NCCCN2CCOCC2)c2cnn(-c3ccccc3)c2n1 | inconclusive: 31.6 µM [activator, single point]
38 | CC(C)NC(=O)CCn1ccc2cc(S(=O)(=O)N3CCCC3)ccc21 | inconclusive: 7.08 µM [activator, full curve, poor fit]
39 | O=C(Nc1cccc(-c2cn3cccnc3n2)c1)c1ccc(Br)o1 | inactive
40 | O=C(NC1CCCCCC1)C1CCCN(S(=O)(=O)c2cccs2)C1 (stereo not drawn) | inconclusive: 14.1 µM [inhibitor, partial curve, poor fit]
41 | COc1ccc(CC(=O)NC2CCSc3ccccc32)c(OC)c1 (stereo not drawn) | inconclusive: 7.08 µM [inhibitor, partial curve, poor fit]
42 | Cc1cc(/C=C(/C#N)c2nc3ccccc3[nH]2)c(C)n1-c1cccc([N+](=O)[O-])c1 | active: 10 µM
43 | CC(=O)Nc1ccc(S(=O)(=O)N2CCc3nc(-c4ccccc4)c4c(c3C2)CO[C@@H](C)C4)cc1 | inconclusive: 1.33 µM [inhibitor, single point]

3 entries from above in another layout.

| Row | SMILES | Potency |
| --- | --- | --- |
| 31 | CC1CN(C2=N/C(=C/c3ccc4c(c3)OCO4)C(=O)N2)CC(C)O1 (stereo not drawn) | inconclusive: 3.16 µM [inhibitor, partial curve, poor fit] |
| 34 | COc1cc(CN(C(=O)COc2ccc(F)cc2)c2ccccn2)cc(OC)c1OC | inactive |
| 41 | COc1ccc(CC(=O)NC2CCSc3ccccc32)c(OC)c1 (stereo not drawn) | inconclusive: 7.08 µM [inhibitor, partial curve, poor fit] |
